Laboratory results published in publication PMC7862700.
The list shows a part of the results, in another mix than the full data. At the low end of the ranking the order means little.

Amino acid sequences for entries named in this document (tags omitted). A change or cut given only in a name is not applied to a line headed by its entry.
UniProt Q9Y603: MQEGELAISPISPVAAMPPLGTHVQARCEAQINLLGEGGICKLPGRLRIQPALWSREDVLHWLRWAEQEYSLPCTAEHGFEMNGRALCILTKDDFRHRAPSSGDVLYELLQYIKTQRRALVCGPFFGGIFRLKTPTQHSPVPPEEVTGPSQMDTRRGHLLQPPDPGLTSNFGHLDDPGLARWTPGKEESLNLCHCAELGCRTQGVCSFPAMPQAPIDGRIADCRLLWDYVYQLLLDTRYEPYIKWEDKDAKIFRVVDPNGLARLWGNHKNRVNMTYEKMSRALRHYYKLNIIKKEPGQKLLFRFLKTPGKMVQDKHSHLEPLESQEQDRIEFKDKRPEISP
UniProt P41212: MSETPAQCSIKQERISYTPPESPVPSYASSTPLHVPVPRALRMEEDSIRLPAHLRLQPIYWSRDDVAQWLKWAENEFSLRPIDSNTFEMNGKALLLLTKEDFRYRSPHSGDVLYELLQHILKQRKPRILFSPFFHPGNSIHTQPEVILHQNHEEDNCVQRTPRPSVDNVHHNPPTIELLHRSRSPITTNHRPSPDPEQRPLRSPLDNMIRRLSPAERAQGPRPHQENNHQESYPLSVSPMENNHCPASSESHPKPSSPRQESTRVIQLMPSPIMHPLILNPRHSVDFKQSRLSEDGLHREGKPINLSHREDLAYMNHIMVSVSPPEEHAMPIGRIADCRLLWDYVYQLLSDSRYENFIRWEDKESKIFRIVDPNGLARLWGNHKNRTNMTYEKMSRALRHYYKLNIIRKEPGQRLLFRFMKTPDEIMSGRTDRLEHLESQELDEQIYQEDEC

Experiments:
Assay in all cases: DAPPL (digital affinity profiling via proximity ligation, sequencing)
Settings in all cases: 10 mM Tris-HCl pH 7.5, 50 mM NaCl, 1 mM DTT, 4% glycerol, room temperature, 30 min; GST-TFs on glutathione beads, 16-mer random dsDNA library, 0.1% …; high values mean tight binding; double strand, one strand shown; scale: fold enrichment (6-mer frequency, TF over GST control)
ELF3 = target: T1, ELF3 (UniProt P78545)
T1 sequence: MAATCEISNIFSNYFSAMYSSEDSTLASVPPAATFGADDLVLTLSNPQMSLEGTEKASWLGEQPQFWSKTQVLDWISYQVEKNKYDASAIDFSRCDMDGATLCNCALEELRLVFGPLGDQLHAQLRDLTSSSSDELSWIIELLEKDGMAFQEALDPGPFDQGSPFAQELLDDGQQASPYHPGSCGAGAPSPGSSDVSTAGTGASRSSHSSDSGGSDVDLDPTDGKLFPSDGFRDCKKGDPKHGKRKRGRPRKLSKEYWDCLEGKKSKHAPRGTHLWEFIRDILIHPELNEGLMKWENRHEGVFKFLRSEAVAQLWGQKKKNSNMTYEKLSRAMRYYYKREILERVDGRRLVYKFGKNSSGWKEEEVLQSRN

ETV7 = ETV7 (UniProt Q9Y603)
ETV6 = ETV6 (UniProt P41212)

Sequence | binding signal (ELF3) | binding signal (ETV7) | binding signal (ETV6)
CGCTGA | 0.795 | 0.978 | 0.764
TCAGGG | 0.891 | 0.801 | 0.751
TGTGTC | 0.763 | 0.851 | 0.777
TCGGGC | 0.478 | 0.511 | 0.457
GTGAAA | 0.725 | 0.787 | 0.673
TTAGAC | 0.736 | 0.82 | 0.845
GCGGTT | 0.726 | 0.752 | 0.751
GAGCGC | 0.541 | 0.612 | 0.638
GAGCGG | 0.491 | 0.517 | 0.545
GTGGTG | 0.811 | 1 | 0.862
GGGCAA | 0.889 | 0.848 | 0.881
TCGGCA | 0.685 | 0.747 | 0.747
GCAAGG | 0.821 | 0.87 | 0.773
TTGGAG | 0.611 | 0.596 | 0.483
GTGCCA | 0.849 | 0.75 | 0.822
TCGCCA | 0.906 | 0.866 | 0.978
GAACGT | 0.434 | 0.463 | 0.407
CAAGTC | 0.859 | 0.851 | 0.844
AAACGT | 0.901 | 0.97 | 0.957
ACGGGA | 0.501 | 0.559 | 0.514
CGTGGG | 0.39 | 0.395 | 0.39

Sequence | binding signal (ELF3) | binding signal (ETV7) | binding signal (ETV6)
GGTGGG | 0.593 | 0.654 | 0.685
GAGTTG | 0.39 | 0.544 | 0.528
GTTAGT | 0.857 | 0.824 | 0.792
GGACCC | 0.866 | 0.791 | 0.865
GGAGCG | 0.338 | 0.402 | 0.429
CAGGAC | 0.658 | 0.762 | 0.806
GTGTGG | 0.609 | 0.626 | 0.716
CGTGTA | 0.653 | 0.691 | 0.647
TGGAGA | 0.395 | 0.454 | 0.443
GAGATC | 0.453 | 0.506 | 0.442
CTGAGT | 0.477 | 0.653 | 0.595
CGTGCG | 0.658 | 0.64 | 0.676
GAAGAC | 0.925 | 0.928 | 0.879
GTCTGC | 0.829 | 0.871 | 0.817
GAGTCA | 0.306 | 0.32 | 0.268
GTCGCG | 0.673 | 0.75 | 0.68
GCAGGC | 0.644 | 0.75 | 0.734
GAGTCC | 0.354 | 0.419 | 0.378
TGGGCC | 0.803 | 0.937 | 0.95
GGCATC | 0.807 | 0.739 | 0.961
GACCAG | 0.668 | 0.587 | 0.597

A second format for some results above.

| Sequence | binding signal (ELF3) | binding signal (ETV7) | binding signal (ETV6) |
| --- | --- | --- | --- |
| CAGGAC | 0.658 | 0.762 | 0.806 |
| GTCTGC | 0.829 | 0.871 | 0.817 |
| GAGTCA | 0.306 | 0.32 | 0.268 |

More records follow.

Sequence | binding signal (ELF3) | binding signal (ETV7) | binding signal (ETV6)
AGACCA | 0.606 | 0.599 | 0.561
GCCGTT | 0.859 | 0.769 | 0.779
TACCGT | 0.707 | 0.752 | 0.623
GACCAC | 0.83 | 0.751 | 0.914
GCACCG | 0.823 | 0.652 | 0.716
AGAGTT | 0.784 | 0.83 | 0.805
TCGTAA | 0.968 | 0.898 | 0.936
AGCGGT | 0.704 | 0.69 | 0.778
AGTGGG | 0.637 | 0.548 | 0.674
CGGACT | 0.869 | 0.796 | 0.776
CGAGTG | 0.768 | 0.775 | 0.861
TGGAGC | 0.626 | 0.578 | 0.637
CGCAGC | 0.766 | 0.843 | 0.752
GTGATT | 0.687 | 0.738 | 0.747
CGTGTT | 0.815 | 0.852 | 0.78
GTCAAG | 0.88 | 0.753 | 0.835
GGCGTG | 0.301 | 0.356 | 0.346
GCATGA | 0.888 | 0.767 | 0.717
GGTCAT | 0.828 | 0.887 | 0.827
